# In article PMC6691103:
# By UniProt entry, the sequences of proteins in these tests, tags left out. Residues count along the entry.
# UniProt Q2VL90, residues 47-1115: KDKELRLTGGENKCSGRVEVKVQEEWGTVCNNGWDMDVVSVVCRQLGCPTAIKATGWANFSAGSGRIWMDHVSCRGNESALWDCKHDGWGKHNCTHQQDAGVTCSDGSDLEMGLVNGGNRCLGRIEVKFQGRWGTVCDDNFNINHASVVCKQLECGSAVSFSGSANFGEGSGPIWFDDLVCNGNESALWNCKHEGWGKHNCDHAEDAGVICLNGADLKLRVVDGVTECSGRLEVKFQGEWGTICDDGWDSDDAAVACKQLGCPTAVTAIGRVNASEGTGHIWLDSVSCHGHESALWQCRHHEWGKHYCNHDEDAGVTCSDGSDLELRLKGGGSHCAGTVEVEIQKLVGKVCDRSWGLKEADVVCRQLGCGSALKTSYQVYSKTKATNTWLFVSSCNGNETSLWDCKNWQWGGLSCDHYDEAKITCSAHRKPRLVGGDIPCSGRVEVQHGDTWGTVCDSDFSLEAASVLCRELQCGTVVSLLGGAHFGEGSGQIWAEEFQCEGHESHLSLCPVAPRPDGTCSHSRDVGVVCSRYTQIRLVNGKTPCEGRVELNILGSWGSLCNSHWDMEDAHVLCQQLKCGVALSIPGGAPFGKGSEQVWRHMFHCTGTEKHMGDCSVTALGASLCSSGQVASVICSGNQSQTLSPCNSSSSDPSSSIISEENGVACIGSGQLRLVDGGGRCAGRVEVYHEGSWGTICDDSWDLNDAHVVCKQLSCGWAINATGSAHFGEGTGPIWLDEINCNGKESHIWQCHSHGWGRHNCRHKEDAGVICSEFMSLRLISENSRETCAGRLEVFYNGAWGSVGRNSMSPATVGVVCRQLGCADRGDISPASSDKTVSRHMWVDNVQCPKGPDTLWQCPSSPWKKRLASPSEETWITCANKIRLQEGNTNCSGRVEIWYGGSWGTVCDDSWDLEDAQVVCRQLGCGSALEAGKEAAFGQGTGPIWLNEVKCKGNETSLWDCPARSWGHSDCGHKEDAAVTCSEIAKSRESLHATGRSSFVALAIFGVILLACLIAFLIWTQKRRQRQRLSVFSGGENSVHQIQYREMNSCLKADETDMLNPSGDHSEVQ
# UniProt P35579: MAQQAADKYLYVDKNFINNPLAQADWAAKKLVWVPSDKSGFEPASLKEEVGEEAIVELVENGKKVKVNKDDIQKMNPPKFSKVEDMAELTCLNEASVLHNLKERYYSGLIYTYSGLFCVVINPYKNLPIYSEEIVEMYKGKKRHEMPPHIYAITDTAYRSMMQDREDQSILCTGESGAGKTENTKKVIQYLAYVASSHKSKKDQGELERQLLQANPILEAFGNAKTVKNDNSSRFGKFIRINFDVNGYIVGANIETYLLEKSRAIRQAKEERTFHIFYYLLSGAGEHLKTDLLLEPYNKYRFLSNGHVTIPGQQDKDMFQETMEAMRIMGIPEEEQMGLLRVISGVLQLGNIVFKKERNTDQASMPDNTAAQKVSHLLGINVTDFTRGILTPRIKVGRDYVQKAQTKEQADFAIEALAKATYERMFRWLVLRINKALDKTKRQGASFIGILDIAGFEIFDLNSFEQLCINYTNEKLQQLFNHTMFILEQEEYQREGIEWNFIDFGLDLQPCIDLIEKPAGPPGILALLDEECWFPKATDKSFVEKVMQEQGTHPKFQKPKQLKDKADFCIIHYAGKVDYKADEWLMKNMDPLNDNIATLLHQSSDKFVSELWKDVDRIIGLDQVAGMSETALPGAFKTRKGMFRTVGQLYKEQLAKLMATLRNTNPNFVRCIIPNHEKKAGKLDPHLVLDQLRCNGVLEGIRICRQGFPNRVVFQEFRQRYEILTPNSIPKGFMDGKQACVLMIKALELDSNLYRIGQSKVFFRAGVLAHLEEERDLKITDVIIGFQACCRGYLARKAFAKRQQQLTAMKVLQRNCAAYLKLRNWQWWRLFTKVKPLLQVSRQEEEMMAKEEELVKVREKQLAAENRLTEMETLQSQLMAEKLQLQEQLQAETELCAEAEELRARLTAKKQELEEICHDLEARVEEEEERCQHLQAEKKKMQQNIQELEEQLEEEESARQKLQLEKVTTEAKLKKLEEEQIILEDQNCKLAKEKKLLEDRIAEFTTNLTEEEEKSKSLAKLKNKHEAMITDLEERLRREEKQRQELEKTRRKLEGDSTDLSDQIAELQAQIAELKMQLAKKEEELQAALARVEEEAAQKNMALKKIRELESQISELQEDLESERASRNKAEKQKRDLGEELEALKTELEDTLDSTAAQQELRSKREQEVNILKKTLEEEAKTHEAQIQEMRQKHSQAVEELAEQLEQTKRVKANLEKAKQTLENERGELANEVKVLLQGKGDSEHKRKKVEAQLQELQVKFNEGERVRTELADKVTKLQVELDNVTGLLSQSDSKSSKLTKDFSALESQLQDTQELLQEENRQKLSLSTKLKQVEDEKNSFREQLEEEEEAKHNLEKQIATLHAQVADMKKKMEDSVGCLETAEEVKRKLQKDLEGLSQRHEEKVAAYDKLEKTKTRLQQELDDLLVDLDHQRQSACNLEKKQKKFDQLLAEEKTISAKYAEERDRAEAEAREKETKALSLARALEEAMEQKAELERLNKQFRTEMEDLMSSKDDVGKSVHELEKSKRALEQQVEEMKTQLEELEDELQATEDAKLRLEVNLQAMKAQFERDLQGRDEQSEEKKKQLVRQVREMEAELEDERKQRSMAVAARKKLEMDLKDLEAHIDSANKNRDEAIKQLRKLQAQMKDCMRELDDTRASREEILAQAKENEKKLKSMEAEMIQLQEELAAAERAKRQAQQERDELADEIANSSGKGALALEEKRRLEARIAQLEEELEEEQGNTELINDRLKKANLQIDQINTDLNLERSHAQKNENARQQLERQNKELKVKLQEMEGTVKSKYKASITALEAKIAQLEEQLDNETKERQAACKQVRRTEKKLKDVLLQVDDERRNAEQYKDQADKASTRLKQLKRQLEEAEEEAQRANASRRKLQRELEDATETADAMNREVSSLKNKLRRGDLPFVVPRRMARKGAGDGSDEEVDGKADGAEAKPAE
# These are yes or no findings as the source states them, for the method shown. Binding seen in cells or lysates may run through a third protein. Some results given as binding are weak or reduced against the parent protein; the word gives no strength.
# How the values were obtained:
# [1] = target: porcine full-length CD163, stably expressed in HEK293T (HEK293T^CD163) (porcine) (UniProt Q2VL90); experiment: co-IP; lysates of HEK293T cells stably expressing CD163, SRCR1-4 or SRCR5-CT; IP with anti-myc or anti-MYH9 antibody, blot with Mab2-5G2 and anti-myc
# [2] = target: human MYH9 (hMYH9), endogenous in HEK293T (human) (UniProt P35579); experiment: as above
Substance,binding [1],binding [2]
"human MYH9 (hMYH9), endogenous in HEK293T (from UniProt P35579 1-1960)",binds,
"porcine full-length CD163, stably expressed in HEK293T (HEK293T^CD163) (from UniProt Q2VL90 47-1115) (receptor)",,binds
